This is a selection; strong and weak results do not stand in their true shares. At the low end of the ranking, values are background and their order means little.
molecular target: SPI1 (UniProt P17947); assay: DAPPL (digital affinity profiling via proximity ligation, sequencing); conditions: 10 mM Tris-HCl pH 7.5, 50 mM NaCl, 1 mM DTT, 4% glycerol, room temperature, 30 min; GST-TFs on glutathione beads, 16-mer random dsDNA library, 0.1% …; high values mean tight binding; double strand, one strand shown; scale: fold enrichment (6-mer frequency, TF over GST control)

For ATAGAC, which binding signal is on record?
The binding signal was 1.02.

Which binding signal does the source give for TGAACG here?
The binding signal was 0.958.

How did the binding signal turn out when TTCTAG was run?
Its binding signal is 1.2.

How did the binding signal turn out when CTTAAC was run?
The binding signal was 1.32.

Which binding signal does the source give for CGAATT here?
Its binding signal is 1.22.

How did the binding signal turn out when ACGAAG was run?
The binding signal was 0.897.

How did the binding signal turn out when TCCAGA was run?
The binding signal was 0.946.

For CACTGA, which binding signal is on record?
Its binding signal is 0.996.

ACGCCA was tested. Which binding signal did it give?
The binding signal was 0.946.

How did the binding signal turn out when TTCGAG was run?
The binding signal was 1.21.

How did the binding signal turn out when CGAGAT was run?
Its binding signal is 0.896.

For CTCACA, which binding signal is on record?
The binding signal was 1.27.

Which binding signal does the source give for CGACAG here?
Its binding signal is 0.901.

For GTCCGG, which binding signal is on record?
Its binding signal is 0.903.

CCCGCT was tested. Which binding signal did it give?
The binding signal was 1.37.

GCCTGC was tested. Which binding signal did it give?
Its binding signal is 1.06.

How did the binding signal turn out when CACATG was run?
The binding signal was 1.11.

With GTGGTC as the sequence, how does the binding signal read?
The binding signal was 0.914.

How did the binding signal turn out when AGTTTA was run?
The binding signal was 1.01.

With TAACGT as the sequence, how does the binding signal read?
The binding signal was 1.03.

With CGAGAA as the sequence, how does the binding signal read?
The binding signal was 0.817.

How did the binding signal turn out when GGTTAA was run?
Its binding signal is 0.918.

With AATCAC as the sequence, how does the binding signal read?
Its binding signal is 1.12.

For CGCTGC, which binding signal is on record?
The binding signal was 1.07.

GGACTC was tested. Which binding signal did it give?
Its binding signal is 0.933.

GTGTCC was tested. Which binding signal did it give?
Its binding signal is 1.08.

Which binding signal does the source give for GTACTG here?
The binding signal was 1.04.

Which binding signal does the source give for TAGTAG here?
The binding signal was 0.935.

Which binding signal does the source give for GATCCA here?
Its binding signal is 0.945.

Which binding signal does the source give for TCTAGA here?
Its binding signal is 0.98.

With TGTTAG as the sequence, how does the binding signal read?
The binding signal was 0.84.

CAGCGC was tested. Which binding signal did it give?
The binding signal was 0.912.

With TAGAAT as the sequence, how does the binding signal read?
The binding signal was 1.15.

CCAGCT was tested. Which binding signal did it give?
Its binding signal is 0.982.

GACCCC was tested. Which binding signal did it give?
Its binding signal is 0.899.

Which binding signal does the source give for GAGAAA here?
Its binding signal is 0.708.

Which binding signal does the source give for AAGCTA here?
The binding signal was 1.04.

GTGCCC was tested. Which binding signal did it give?
The binding signal was 1.07.
